## Library screen at single concentrations

Sequences of proteins named here, by UniProt entry; tags and fusion partners are left off. Residues count along the entry.
UniProt A4I591, 1-473: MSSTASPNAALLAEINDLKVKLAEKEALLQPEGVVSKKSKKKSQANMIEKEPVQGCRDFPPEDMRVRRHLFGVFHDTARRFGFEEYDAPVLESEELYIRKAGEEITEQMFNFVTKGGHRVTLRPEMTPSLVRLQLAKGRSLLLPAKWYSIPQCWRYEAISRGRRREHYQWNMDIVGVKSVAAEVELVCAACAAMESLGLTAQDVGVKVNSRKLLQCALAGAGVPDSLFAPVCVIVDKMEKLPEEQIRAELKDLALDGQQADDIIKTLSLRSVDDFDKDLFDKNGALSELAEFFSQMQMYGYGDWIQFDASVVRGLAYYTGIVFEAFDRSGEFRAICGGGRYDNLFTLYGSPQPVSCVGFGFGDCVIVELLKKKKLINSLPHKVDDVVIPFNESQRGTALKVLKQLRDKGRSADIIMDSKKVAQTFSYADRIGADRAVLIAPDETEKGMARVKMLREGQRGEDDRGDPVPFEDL
UniProt I6X8D2, whole entry: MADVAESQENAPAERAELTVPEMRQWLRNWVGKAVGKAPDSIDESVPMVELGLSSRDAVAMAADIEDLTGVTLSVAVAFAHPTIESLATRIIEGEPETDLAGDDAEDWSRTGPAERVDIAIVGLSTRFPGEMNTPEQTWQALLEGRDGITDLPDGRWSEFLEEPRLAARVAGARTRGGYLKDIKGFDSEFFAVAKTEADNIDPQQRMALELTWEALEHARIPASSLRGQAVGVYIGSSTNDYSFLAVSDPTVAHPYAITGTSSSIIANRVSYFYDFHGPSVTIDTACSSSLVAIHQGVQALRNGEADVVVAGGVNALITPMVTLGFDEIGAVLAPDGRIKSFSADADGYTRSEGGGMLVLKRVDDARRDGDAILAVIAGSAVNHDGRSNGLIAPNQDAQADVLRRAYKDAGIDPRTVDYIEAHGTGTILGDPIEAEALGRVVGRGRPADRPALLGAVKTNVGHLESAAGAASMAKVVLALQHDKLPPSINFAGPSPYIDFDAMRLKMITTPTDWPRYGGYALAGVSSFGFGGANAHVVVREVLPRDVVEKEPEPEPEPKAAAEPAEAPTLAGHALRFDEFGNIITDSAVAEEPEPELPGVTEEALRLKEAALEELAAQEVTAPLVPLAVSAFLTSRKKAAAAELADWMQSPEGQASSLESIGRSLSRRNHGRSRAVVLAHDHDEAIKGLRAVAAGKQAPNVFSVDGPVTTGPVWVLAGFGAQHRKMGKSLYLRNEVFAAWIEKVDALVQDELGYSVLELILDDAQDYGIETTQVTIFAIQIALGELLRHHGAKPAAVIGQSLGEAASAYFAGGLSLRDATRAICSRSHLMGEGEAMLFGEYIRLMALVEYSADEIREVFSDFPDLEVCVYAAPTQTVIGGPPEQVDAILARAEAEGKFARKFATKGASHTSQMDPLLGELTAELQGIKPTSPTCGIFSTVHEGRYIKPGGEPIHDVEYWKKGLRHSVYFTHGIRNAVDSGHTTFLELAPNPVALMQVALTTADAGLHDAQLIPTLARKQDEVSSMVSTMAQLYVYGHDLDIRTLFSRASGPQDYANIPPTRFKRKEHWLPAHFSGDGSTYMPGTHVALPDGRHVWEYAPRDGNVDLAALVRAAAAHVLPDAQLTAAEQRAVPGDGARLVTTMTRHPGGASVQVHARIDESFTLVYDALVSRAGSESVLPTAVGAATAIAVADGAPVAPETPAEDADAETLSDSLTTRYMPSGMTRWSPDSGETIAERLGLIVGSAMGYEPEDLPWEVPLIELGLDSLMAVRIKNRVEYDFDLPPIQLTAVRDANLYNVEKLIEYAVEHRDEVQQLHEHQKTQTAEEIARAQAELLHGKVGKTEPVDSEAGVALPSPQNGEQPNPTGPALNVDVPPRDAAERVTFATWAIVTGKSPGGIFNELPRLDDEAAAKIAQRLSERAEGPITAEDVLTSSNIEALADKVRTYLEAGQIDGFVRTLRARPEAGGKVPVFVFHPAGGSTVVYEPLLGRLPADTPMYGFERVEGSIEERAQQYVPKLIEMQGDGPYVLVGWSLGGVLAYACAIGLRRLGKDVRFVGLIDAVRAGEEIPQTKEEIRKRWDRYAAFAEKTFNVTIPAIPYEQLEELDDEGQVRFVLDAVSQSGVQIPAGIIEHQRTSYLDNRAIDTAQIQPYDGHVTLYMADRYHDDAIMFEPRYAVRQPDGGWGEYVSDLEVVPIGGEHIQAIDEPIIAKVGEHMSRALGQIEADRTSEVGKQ
UniProt P9WFT3, whole entry: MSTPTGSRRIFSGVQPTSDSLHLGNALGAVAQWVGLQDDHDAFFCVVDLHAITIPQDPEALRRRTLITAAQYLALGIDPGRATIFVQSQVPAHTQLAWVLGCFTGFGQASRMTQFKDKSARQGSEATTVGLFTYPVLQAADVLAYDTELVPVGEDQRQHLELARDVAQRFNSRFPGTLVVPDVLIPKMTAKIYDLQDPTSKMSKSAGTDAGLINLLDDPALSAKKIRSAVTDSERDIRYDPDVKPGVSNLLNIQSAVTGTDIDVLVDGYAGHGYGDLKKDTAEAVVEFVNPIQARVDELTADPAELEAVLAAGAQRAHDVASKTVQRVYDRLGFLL
UniProt Q4DA54, 1-478: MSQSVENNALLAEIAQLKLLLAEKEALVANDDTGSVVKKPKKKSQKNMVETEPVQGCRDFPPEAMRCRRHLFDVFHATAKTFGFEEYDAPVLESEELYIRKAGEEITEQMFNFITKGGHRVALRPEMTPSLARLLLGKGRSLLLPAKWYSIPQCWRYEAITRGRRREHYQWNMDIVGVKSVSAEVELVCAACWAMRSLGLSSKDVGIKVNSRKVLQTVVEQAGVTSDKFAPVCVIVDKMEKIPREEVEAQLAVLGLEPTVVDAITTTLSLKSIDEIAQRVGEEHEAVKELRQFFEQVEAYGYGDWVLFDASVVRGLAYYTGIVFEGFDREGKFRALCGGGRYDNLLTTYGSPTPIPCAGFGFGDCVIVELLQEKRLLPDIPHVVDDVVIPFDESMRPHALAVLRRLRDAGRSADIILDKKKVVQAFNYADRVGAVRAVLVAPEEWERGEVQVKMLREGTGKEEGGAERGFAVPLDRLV

From ChEMBL document CHEMBL3988442, “University of Dundee, Small-Polar-MMV Screening Library” (2021).

Values are the deposited “Percent Effect”, in %. The controls that fix the scale are not given in the record; negative values are as filed. This is an unselected part of the compounds tested. A dash means the value is not listed here; it may have been measured.

LiHisRS: 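Histidine-tRNA ligase, Leishmania infantum (UniProt A4I591). Enzyme assay of histidyl-tRNA synthetase; the read-out is not stated. Concentration: 30 µM. Direction is inferred from retests: higher values go with stronger inhibition. The assay is labelled LdHisRS but filed under L. infantum. Size under these conditions: about 69,000 compounds, about 410 of them at 50% or above in at least one test.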
Pks13 thioesterase: 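Polyketide synthase Pks13, Mycobacterium tuberculosis (UniProt I6X8D2). Enzyme assay of the thioesterase domain of polyketide synthase 13; the read-out is not stated. Concentration: 30 µM. The record gives no direction; the compounds picked for IC50 retests had high values, so higher reads as stronger inhibition. About 67,000 compounds were tested under these conditions; 0.46% (about 300) showed 50% or more at least once.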
MtTrpRS: 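Enzyme assay of tryptophanyl-tRNA synthetase; the read-out is not stated. Target: Tryptophan-tRNA ligase, Mycobacterium tuberculosis (UniProt P9WFT3). Tested at 10 µM. Direction is not recorded; retested compounds ran higher, which suggests that high means inhibition. Of about 65,000 compounds tested this way, about 64 (0.098%) reached 50% or more in at least one test.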
TcHisRS: 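Histidine-tRNA ligase, Trypanosoma cruzi CL Brener (UniProt Q4DA54). Enzyme assay of histidyl-tRNA synthetase; the read-out is not stated. Compounds at 30 µM. The record gives no direction; compounds that gave an IC50 in retests scored well above the rest, so higher reads as stronger inhibition. Of about 69,000 compounds tested this way, about 31 (0.045%) reached 50% or more in at least one test.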

compound	LiHisRS	Pks13 thioesterase	MtTrpRS	TcHisRS
CC(C)c1cc(C(=O)N[C@@H]2CC[C@@H](Oc3ccccc3)[C@@H]2O)on1	12.59	-8.047	-8.29	-1.13
N#Cc1cn(C2CC2)c(=O)n(CC(O)c2ccccc2F)c1=O (centres unmarked)	36	-16.75	-0.7862	-1.141
CN1CC(c2ccccc2)CC12CCN(C(=O)c1ccc(Cl)cn1)CC2 (centres unmarked)	-113.9	4.729	4.131	6.122
CN(C)CCOCc1ncn2c1CN(c1ncc(F)cn1)CCC2	18.42	-33.06	-5.05	5.747
CCOCC1CN(CCOc2ccc(Cl)cc2)Cc2c1cnn2C (centres unmarked)	14.47	12.12	-0.4248	7.609
CN(Cc1ccccc1NCc1ncc[nH]1)C(=O)c1cccs1	0	-13.36	5.067	4.372
CCOCC1CN(c2ccc(C)nn2)Cc2nn(CC)cc21 (centres unmarked)	16.24	-23.03	0.07052	10.16
COc1c(CNC2CCOc3c(Cl)cccc32)c(C)nn1C (centres unmarked)	-3.03	-12.97	10.99	4.233
CN(CCc1ccccc1)Cc1nc(-c2cnccn2)no1	3.226	-18.85	-3.32	1.571
CCc1cnc(CN(C)C(=O)NC2CCN(C)C2=O)s1 (centres unmarked)	3.333	-17	-5.942	6.494
CCc1noc(CN2CCN(C(=O)N(CC)CC)CC2)n1	10.17	-10.73	4.585	2.857
O=c1ccc2c(n1Cc1cccnc1)CCN(CC1CCOC1)CC2 (centres unmarked)	16	21.58	-9.881	10.34
CN(C)Cc1nc2c(o1)CN(S(=O)(=O)c1cccs1)C2	9.901	-17.09	-	8.543
CSCCC(O)C(=O)N1CCC(OCc2cccnc2)CC1 (centres unmarked)	0	-6.815	2.197	4.202
CC(C)(CNC(=O)COc1cccc(F)c1)C(N)=O	5.505	-	1.04	3.529
Cc1nnc2n1CCN(CCS(=O)(=O)c1ccc(Cl)cc1)C2	1.786	-17.93	8.306	4.035
COc1ccc2c(c1)CCCN2C(=O)CNCC1CN(C)CCO1 (centres unmarked)	19.18	-6.757	-0.2974	3.784
Cc1noc([C@@]23CCO[C@@H]2CCN(C(=O)c2sccc2C)C3)n1	5.66	-9.95	-1.574	0.5405
CNC(=O)N(Cc1c(F)cccc1F)C1CCCC1	6.452	-23.22	-3.306	5.844
COCCS(=O)(=O)Cc1nnnn1-c1ccccc1	11.69	-15.03	-3.505	1.478
CCN(CC)C(=O)CN(C)Cc1nc2c(cnn2C)c(=O)[nH]1	15.38	-17.55	4.749	0.5618
O=C(Nc1nc2c(s1)CN(S(=O)(=O)C1CC1)CC2)Nc1ccccc1F	15.38	-89.45	1.242	0
CN(C)[C@@H]1CCN(C(=O)C2CCOCC2)[C@H]1Cc1ccncc1	0	21.91	12.8	4.598
Cc1cnn(CC(C)NCc2cc(C#N)ccc2F)c1 (centres unmarked)	12.86	-13.24	-3.069	5.319
O=C(NC1CCCCC1)N1CCn2c(nnc2C2CCCN2)C1 (centres unmarked)	2.759	0.7472	0.605	1.775
COCC(=O)NC1CC2(CCN(Cc3ccco3)CC2)c2ccccc21 (centres unmarked)	10.53	-18.02	-2.005	3.867
CCS(=O)(=O)NCCCNCc1c(C)nn(C)c1N(C)C	2.778	-21.34	51.87	2.053
O=C(NCCNc1ncccn1)C1CCN(C(=O)c2ccoc2)CC1	16.07	2.975	-6.224	2.907
CCc1noc(CN2C[C@H]3CC[C@@H]2CN(C2Cc4ccccc4C2)C3)n1	18.58	-5.139	1.926	13.6
CCN(C)S(=O)(=O)NCC1CCN(Cc2ccccc2F)C1 (centres unmarked)	18.99	-43.11	2.21	3.017
CCN1CCN(S(=O)(=O)c2cn(C(C)C)cn2)c2ccccc21	18.97	-	3.515	7.853
Cc1nnc(N2CCOC(C)C2)c(C#N)c1C (centres unmarked)	19.64	-8.035	-4.08	8.284
COCc1csc(NC(=O)NCc2ccc(C)s2)n1	12.7	-27.21	1.125	3.03
Cc1ccc(-c2nc(CN3CCn4c(nnc4C4CC4)C3)co2)cc1	20.27	-22.82	0.2534	-0.3774
COCCN1CCCC12CCN(C(=O)CC1CCCC1)CC2	9.756	-3.815	-1.603	4.511
CCn1cc(Cl)c(C(=O)NCc2cnn(C)c2)n1	3.54	-9.509	1.72	1.754
Cc1cc(C)c2cc(CNC(C)C)c3nn(C)c(=O)n3c2c1	20.62	52.32	-	10

The first 4 entries again:

compound,LiHisRS,Pks13 thioesterase,MtTrpRS,TcHisRS
CC(C)c1cc(C(=O)N[C@@H]2CC[C@@H](Oc3ccccc3)[C@@H]2O)on1,12.59,-8.047,-8.29,-1.13
N#Cc1cn(C2CC2)c(=O)n(CC(O)c2ccccc2F)c1=O (centres unmarked),36,-16.75,-0.7862,-1.141
CN1CC(c2ccccc2)CC12CCN(C(=O)c1ccc(Cl)cn1)CC2 (centres unmarked),-113.9,4.729,4.131,6.122
CN(C)CCOCc1ncn2c1CN(c1ncc(F)cn1)CCC2,18.42,-33.06,-5.05,5.747